Measurements as given in PubChem BioAssay AID624291 (National Center for Advancing Translational Sciences (NCATS), 2012).
The campaign covered roughly 350,000 compounds. About 220 (0.063%) were called active. Inconclusive results, whose numbers are uncertain, are shown with a selection of clear calls. The call rests on the fitted dose curve; in most records, active means well fitted activation curve with a large enough effect; inconclusive means small, poorly fitted or top-dose-only effect; inactive means no such curve, though single readings can be large or run the other way. Potencies of inconclusive entries are doubtful fits and often do not repeat.

Assay: qHTS for Activators of Integrin-Mediated Alleviation for Muscular Dystrophy; further: nearly all actives have a fitted effect of over 60% in size;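 on activation: 100% = response of the positive control SU9516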
Conditions: alpha7betagal myoblasts, beta-gal FDG fluorescence, 48 h; activation: at 38.3 µM (top of the series)
Method in brief: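 Alpha7betagal+/- myoblasts (passage 13) were plated 16-24 hr, then exposed to compounds (1:260 dilution of DMSO stock) for 48 hours at 37C. After MPER lysis, β-galactosidase reporter activity was read as FDG fluorescence (ex 480/em 540) after 30 minutes.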
Potency means the concentration at half of the fitted maximal effect.

Potency, inconclusive:
O=C1CSC(=S)N1N=Cc1ccc(Cl)cc1Cl 5.01 µM [activator, single point], O=C(O/N=C1/CCCc2occc21)c1ccc(F)cc1 2.82 µM [activator, single point], O=C(COc1ccccc1Cl)N(Cc1cccs1)C1CCS(=O)(=O)C1 (stereo not drawn) 3.55 µM [activator, single point], Cc1ccc(S(=O)(=O)NCCCn2ccnc2)cc1C(=O)NC(C)C 10 µM [activator, partial curve], COc1cc(C(C)=O)ccc1OCC(=O)NC(=O)Nc1ccc(C)cc1C 14.1 µM [activator, single point], O=C(CN1CCN(Cc2ccccc2)CC1)NCCc1ccccc1 12.6 µM [activator, partial curve, poor fit], O=C1C2C3C=CC(C4CC34)C2C(=O)N1/N=C/c1ccc(-c2cccc([N+](=O)[O-])c2)o1 (stereo not drawn) 2 µM [activator, partial curve, poor fit], CCCCN(C)CCNC(=S)Nc1ccc2nc(N3CCN(CC)CC3)cc(C)c2c1 3.55 µM [activator, partial curve, poor fit], O=C(CSc1nnc(CNC(=O)c2ccccc2)o1)NCCc1ccccc1 28.2 µM [activator, single point], CC(=O)NCCC(=O)Nc1ccc(F)cc1C 28.2 µM [activator, single point], Cc1c(C(=O)NC(C)C)oc2c1-c1[nH]ncc1CC2 5.62 µM [activator, partial curve, poor fit], O=C(COC(=O)c1cccnc1SC(F)F)NC1CC1 12.6 µM [activator, single point], Cn1c(SCc2ccc([N+](=O)[O-])cc2)nnc1-c1cccnc1 3.55 µM [activator, single point], CCOC(=O)c1c(C)[nH]c(C)c1S(=O)(=O)NCCc1ccco1 28.2 µM [activator, single point], O=C(c1cc(NC(=O)C23CC4CC(CC(C4)C2)C3)cc(NC(=O)C23CC4CC(CC(C4)C2)C3)c1)N1CCCCC1 3.98 µM [activator, partial curve, poor fit], O=C(Nc1ccc(Cl)c(Cl)c1)c1ccccc1NC(=O)C1CC=CCC1C(=O)O (stereo not drawn) 5.01 µM [activator, single point], COc1ccc(C(=O)Nc2ccc3c(c2)nc(CN2CCCC2)n3C)cc1 4.47 µM [activator, partial curve, poor fit], CCCn1c(N)c(C(=O)CSc2nnc(C3CC3)n2Cc2ccccc2)c(=O)n(C)c1=O 3.98 µM [activator, partial curve, poor fit], CC(C)[C@H](NC(=O)NCCC1=CCCCC1)C(=O)O 7.94 µM [activator, partial curve, poor fit], CC(NC(=O)Nc1ccc(F)cc1)c1ccc2c(c1)OCO2 (stereo not drawn) 5.01 µM [activator, single point], O=C(CN1CCN(S(=O)(=O)c2cccc(Br)c2)CC1)NCCc1cccs1 28.2 µM [activator, single point], COc1ccc(S(=O)(=O)N2CC(=O)Nc3ccccc32)cc1 28.2 µM [activator, single point], COc1ccccc1NC1=C(C)C(=O)CC1 15.8 µM [activator, single point], COc1cccc(OC)c1C(=O)NCCSC1CCCCC1 2.51 µM [activator, full curve], Cn1c2ccccc2c(=O)c2c(=O)n(C3CCCCCC3)c(C3CCCCC3)nc21 3.16 µM [activator, single point], Cc1ccc(S(=O)(=O)NNC(=O)c2ccc(F)cc2)cc1 5.01 µM [activator, single point], COc1ccc(N=N/C(C(C)=O)=C(/C)O)cc1 28.2 µM [activator, single point], Cc1cc(C)cc(N=C2NC(=O)/C(=C/c3cccs3)S2)c1 28.2 µM [activator, single point], O=[N+]([O-])c1cccc(C2=NCCS2)c1 3.55 µM [activator, full curve, poor fit], CCOc1cc(C(=O)Nc2ccc([N+](=O)[O-])cn2)cc(OCC)c1OCC 5.01 µM [activator, single point], COc1ccc(C2N(C(C)=O)CCN2S(=O)(=O)c2ccc(C)cc2)cc1 (stereo not drawn) 28.2 µM [activator, partial curve, poor fit], COC(=O)c1cccc(Nc2nc(-c3cccnc3)nc3ccccc23)c1 14.1 µM [activator, single point], O=C(COC(=O)C1CC1)NC(=O)NCc1ccccc1 1.78 µM [activator, partial curve, poor fit], COc1ccc(C(=O)Nc2cccc(-c3ccc4nncn4n3)c2)cc1OC 28.2 µM [activator, single point], Cc1c(Cl)c([N+](=O)[O-])nn1CC(=O)NCC1CCCO1 (stereo not drawn) 20 µM [activator, single point], O=C(Nc1ccc(F)c(F)c1)C1=COCCO1 22.4 µM [activator, single point], O=C(NC1CCCC1)C(c1ccncc1)N(C(=O)c1csnn1)c1ccc(Cl)cc1 (stereo not drawn) 2.51 µM [activator, partial curve, poor fit], O=C(Nc1ccc2nc3n(c(=O)c2c1)CCCCC3)C(=O)N1CCN(c2ccccc2F)CC1 4.47 µM [activator, single point], C/C(=C/c1oc2ccc(O)cc2c1[N+](=O)[O-])N(C)C 2.24 µM [activator, full curve, poor fit], COc1ccc(Cl)cc1NC(=O)CCc1nnc2ccc(N3CCN(C)CC3)nn12 3.16 µM [activator, single point], c1ccc(-c2csc3ncnc(N4CCN(Cc5ccc6c(c5)OCO6)CC4)c23)cc1 15.8 µM [activator, single point], COc1cc(C2CC(=O)Oc3c2c(=O)n(C)c2ccccc32)cc(OC)c1OC (stereo not drawn) 14.1 µM [activator, single point], CCc1ccc(NC(=O)C(C)OC(=O)C2CCC(=O)N2)cc1 (stereo not drawn) 5.01 µM [activator, single point], Cc1ccc(OCC(=O)Nc2ccc3oc(=O)ccc3c2)cc1 5.01 µM [activator, single point], CC(=O)c1ccc(/C=C/c2nc3ccccc3n2C)o1 2.82 µM [activator, partial curve, poor fit], COc1cc2c(cc1NC(=O)COC(=O)/C=C/c1ccccc1)oc1ccccc12 10 µM [activator, single point]

Potency, inactive:
CN(C(=O)c1cc2n(n1)C(C(F)(F)F)CC(c1ccco1)N2)c1ccccc1 (stereo not drawn), COc1cc(OC)c(OC)cc1/C=N/NC(=S)NCCN1CCOCC1, O=C(NC(=S)N1CCN(c2ccc([N+](=O)[O-])cc2Cl)CC1)c1ccco1, O=c1cc(-c2ccc3c(c2)OCO3)oc2ccccc12, COc1coc(/C=C/C(=O)O)cc1=O, CCN(c1ccccc1)S(=O)(=O)c1ccc(C(=O)N(CCCN(C)C)c2nc3cc4c(cc3s2)OCO4)cc1, Cn1nc(C(=O)N2CCN(c3ccccn3)CC2)c2ccccc2c1=O, CSC1=NC(C)(C)C=C(/C=C/c2ccc(Cl)cc2Cl)N1, CC(=O)N1CC(=O)N=C1SCC(=O)Nc1nc(C)c(-c2ccccc2)s1, O=C(NCC(c1cccs1)N1CCOCC1)c1ccc(Cl)c([N+](=O)[O-])c1 (stereo not drawn), OCCCNc1cc(-c2ccccc2)nc2cc(-c3ccc(F)cc3)nn12, COc1ccc2[nH]c(=O)c(-c3nnn(-c4ccccc4)n3)cc2c1, CN(CC(=O)Nc1ccc(Cl)c(C(F)(F)F)c1)C(=O)C1CCN(C(=O)c2ccc(Cl)cc2)CC1, Cc1cc(=O)n2nc(N3CCC(C(=O)N4CCN(C)CC4)CC3)sc2n1, CCOc1ccc(NS(=O)(=O)c2ccc(C(=O)NC3CCC(O)CC3)cc2)cc1 (stereo not drawn), C#CCn1c(=NC(=O)c2cc(Cl)sc2Cl)sc2cc(S(N)(=O)=O)ccc21, O=C(N/N=C\c1ccccc1F)c1ccc(-c2ccccc2)cc1, Cc1cc(C)c2cc(CN(CCO)Cc3nnnn3Cc3ccc(F)cc3)c(=O)[nH]c2c1, CCN1C(=O)S/C(=C/c2ccc(Oc3ccc([N+](=O)[O-])cn3)c(OC)c2)C1=O, O=C(CCN1C(=O)/C(=C/c2ccccc2F)SC1=S)NCCc1ccc(O)cc1

activation, inconclusive:
Cc1ccccc1N=C1NN=C(c2ccccc2F)CS1 -25.1% [activator], COc1ccc(NC(=S)NC(=O)c2ccc3c(c2)OCCO3)cc1 -32.5% [activator]
